Measurements taken from the supplement of paper PMC7238544.
± gives the standard deviation of the averaged measurements. The list shows a part of the results. The data scatter; read single values as rough.

These molecules were tested on hAMSC donor 1 (assay: Hoechst total cell count ratio vs vehicle control; hAMSC are human adipose-derived mesenchymal stem cells given an EGFP-luciferase plasmid by lipofection; higher = more cells (less toxicity)). Settings: priming compound concentration 0.2 µM.

**Q.** Which “Hoechst total cell count ratio” value does the source give for `O=C1NC(=O)C(c2ccccc2)(c2ccccc2)N1` [Dilantin] here?
**A.** 1.12 ± 0.022

**Q.** Which “Hoechst total cell count ratio” value does the source give for `CC(C)C[C@H](NC(=O)[C@@H](COC(C)(C)C)NC(=O)[C@H](Cc1ccc(O)cc1)NC(=O)[C@H](CO)NC(=O)[C@H](Cc1c[nH]c2ccccc12)NC(=O)[C@H](Cc1cnc[nH]1)NC(=O)[C@@H]1CCC(=O)N1)C(=O)N[C@@H](CCCNC(=N)N)C(=O)N1CCC[C@H]1C(=O)NNC(N)=O` [Goserelin acetate] here?
**A.** 1.02 ± 0.074

**Q.** How did the “Hoechst total cell count ratio” value turn out when `O=C1CN(/N=C/c2ccc(-c3ccc([N+](=O)[O-])cc3)o2)C(=O)N1` [Dantrolene sodium] was run?
**A.** 1.24 ± 0.11

**Q.** `CCN(CC)CC(=O)Nc1c(C)cccc1C` [Lidocaine] was tested. Which “Hoechst total cell count ratio” value did it give?
**A.** 0.986 ± 0.058

**Q.** How did the “Hoechst total cell count ratio” value turn out when `C=CC[C@@H]1/C=C(\C)C[C@H](C)C[C@H](OC)[C@H]2O[C@@](O)(C(=O)C(=O)N3CCCC[C@H]3C(=O)O[C@H](/C(C)=C/[C@@H]3CC[C@@H](O)[C@H](OC)C3)[C@H](C)[C@@H](O)CC1=O)[C@H](C)C[C@@H]2OC` [Tacrolimus] was run?
**A.** 1.45 ± 0.13

**Q.** How did the “Hoechst total cell count ratio” value turn out when `CC[C@@H](CO)NCCN[C@@H](CC)CO` [Ethambutol] was run?
**A.** 1.23 ± 0.044

**Q.** `O=C(O)CCCc1ccccc1` [4-Phenylbutyric acid] was tested. Which “Hoechst total cell count ratio” value did it give?
**A.** 1.25 ± 0.05

**Q.** Which “Hoechst total cell count ratio” value does the source give for `O=c1c(-c2ccccc2)c1-c1ccccc1` [Diphenylcyclopropenone] here?
**A.** 1.12 ± 0.039

**Q.** For `CC(C)(C(=O)c1cccnc1)c1cccnc1` [Metyrapone], which “Hoechst total cell count ratio” value is on record?
**A.** 1.03 ± 0.17

**Q.** `COc1c(N2CCNC(C)C2)c(F)cc2c(=O)c(C(=O)O)cn(C3CC3)c12` (stereo unspecified) [Gatifloxacin] was tested. Which “Hoechst total cell count ratio” value did it give?
**A.** 1.11 ± 0.021

**Q.** With `Cc1cnc(C(=O)NCCc2ccc(S(=O)(=O)NC(=O)NC3CCCCC3)cc2)cn1` [Glipizide] as the molecule, how does the “Hoechst total cell count ratio” value read?
**A.** 1.2 ± 0.11
